{"sequences": {"note": "Protein sequences, listed by entry. Tags and fused reporters are not part of them.", "UniProt P23678": "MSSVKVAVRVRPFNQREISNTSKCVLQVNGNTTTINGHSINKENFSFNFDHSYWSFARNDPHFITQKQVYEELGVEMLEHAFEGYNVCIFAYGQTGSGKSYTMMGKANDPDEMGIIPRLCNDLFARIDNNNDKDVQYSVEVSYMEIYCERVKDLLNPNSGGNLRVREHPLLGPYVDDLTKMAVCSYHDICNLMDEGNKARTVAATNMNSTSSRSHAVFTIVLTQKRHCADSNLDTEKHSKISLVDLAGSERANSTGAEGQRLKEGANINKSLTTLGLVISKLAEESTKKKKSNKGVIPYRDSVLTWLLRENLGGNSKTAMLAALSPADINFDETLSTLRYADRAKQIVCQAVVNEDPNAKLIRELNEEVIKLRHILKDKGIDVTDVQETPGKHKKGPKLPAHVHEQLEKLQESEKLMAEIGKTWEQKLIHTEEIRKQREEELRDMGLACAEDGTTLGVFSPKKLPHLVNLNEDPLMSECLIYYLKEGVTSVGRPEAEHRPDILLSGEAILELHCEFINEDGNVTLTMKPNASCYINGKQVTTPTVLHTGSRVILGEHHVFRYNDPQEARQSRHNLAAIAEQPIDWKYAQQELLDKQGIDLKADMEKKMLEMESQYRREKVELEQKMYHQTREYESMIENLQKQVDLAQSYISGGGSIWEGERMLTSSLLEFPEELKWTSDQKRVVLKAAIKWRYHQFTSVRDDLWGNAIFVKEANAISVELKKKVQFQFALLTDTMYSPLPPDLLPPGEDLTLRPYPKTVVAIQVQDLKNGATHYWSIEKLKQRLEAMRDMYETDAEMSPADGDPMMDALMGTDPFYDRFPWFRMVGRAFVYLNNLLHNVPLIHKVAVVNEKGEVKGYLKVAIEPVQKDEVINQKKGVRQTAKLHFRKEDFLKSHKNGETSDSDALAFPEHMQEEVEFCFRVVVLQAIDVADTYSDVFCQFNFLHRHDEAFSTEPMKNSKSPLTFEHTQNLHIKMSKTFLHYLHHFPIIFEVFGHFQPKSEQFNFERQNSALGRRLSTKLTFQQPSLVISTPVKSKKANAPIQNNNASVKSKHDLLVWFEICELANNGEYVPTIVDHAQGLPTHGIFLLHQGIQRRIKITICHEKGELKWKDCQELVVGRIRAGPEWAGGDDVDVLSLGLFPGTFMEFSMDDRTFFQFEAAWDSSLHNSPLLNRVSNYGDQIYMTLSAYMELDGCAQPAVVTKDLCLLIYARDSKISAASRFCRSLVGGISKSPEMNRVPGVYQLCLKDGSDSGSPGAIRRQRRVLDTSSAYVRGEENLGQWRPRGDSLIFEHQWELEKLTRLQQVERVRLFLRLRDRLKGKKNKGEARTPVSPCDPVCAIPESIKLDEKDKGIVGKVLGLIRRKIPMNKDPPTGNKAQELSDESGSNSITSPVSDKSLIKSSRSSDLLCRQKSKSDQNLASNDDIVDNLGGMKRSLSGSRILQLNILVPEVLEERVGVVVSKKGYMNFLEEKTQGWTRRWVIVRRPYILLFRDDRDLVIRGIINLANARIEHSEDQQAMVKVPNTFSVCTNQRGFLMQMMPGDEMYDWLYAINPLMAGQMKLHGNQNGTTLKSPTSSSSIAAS", "UniProt Q21049": "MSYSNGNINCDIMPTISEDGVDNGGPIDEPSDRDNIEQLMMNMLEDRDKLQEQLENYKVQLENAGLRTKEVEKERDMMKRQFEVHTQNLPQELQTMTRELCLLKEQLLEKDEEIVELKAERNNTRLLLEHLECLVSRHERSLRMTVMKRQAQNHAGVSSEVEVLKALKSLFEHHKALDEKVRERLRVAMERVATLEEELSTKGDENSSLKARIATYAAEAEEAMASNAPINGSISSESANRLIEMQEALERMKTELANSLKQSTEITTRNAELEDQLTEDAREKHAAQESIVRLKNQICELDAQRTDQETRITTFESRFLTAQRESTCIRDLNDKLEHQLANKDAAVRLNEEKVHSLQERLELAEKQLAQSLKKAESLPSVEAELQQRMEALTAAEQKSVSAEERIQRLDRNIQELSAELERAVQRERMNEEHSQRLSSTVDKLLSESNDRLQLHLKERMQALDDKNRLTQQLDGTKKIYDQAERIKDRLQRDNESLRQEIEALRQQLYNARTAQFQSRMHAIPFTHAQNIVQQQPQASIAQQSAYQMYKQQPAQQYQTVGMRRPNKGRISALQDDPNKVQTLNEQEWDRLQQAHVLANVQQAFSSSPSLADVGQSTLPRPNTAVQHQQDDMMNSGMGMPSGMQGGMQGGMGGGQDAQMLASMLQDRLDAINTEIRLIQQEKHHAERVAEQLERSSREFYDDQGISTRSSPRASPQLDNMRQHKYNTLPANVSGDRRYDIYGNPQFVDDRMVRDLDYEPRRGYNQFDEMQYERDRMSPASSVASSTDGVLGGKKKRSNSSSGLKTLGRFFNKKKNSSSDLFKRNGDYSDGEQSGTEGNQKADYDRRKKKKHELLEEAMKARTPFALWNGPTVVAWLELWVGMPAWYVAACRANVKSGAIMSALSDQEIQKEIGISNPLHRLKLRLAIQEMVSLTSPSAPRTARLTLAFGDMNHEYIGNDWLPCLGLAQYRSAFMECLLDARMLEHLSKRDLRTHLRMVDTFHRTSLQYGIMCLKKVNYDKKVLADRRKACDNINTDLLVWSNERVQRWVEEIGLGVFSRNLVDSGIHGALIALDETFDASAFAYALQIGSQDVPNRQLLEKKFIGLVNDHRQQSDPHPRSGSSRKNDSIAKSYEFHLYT"}, "source": "paper doi:10.1101/723288", "target": "UNC-104::GFP (C. elegans) (UniProt P23678)", "test": "co-IP", "note": "These are yes or no findings as the source states them, for the method shown. Binding seen in cells or lysates may run through a third protein. Some results given as binding are weak or reduced against the parent protein; the word gives no strength."}
{"substance": "SYD-2 (from UniProt Q21049 1-1139)", "values": [{"measurement": "binding", "result": "binds"}]}
